{"source": "patent US20170364630A1", "about": "“IDENTIFICATION OF CELLULAR ANTIMICROBIAL DRUG TABLETS THROUGH INTERACTOME ANALYSIS” (Vanderbilt University, priority 2014, published 2017)", "origin": "cited, not measured here", "key": {"Ebola": {"system": "Ebola", "settings": "preliminary studies in mice"}, "Ebola virus": {"system": "Ebola virus", "settings": "in vitro"}}, "note": "At least one structure is not confirmed: it was looked up by name or label, or the drawing left a doubt.", "data": [{"smiles": "COc1ccc2cc1Oc1ccc(cc1)C[C@H]1c3cc(c(OC)cc3CCN1C)Oc1c(OC)c(OC)cc3c1[C@H](C2)N(C)CC3", "note": "[tetrandrine]", "values": [{"measurement": "Therapeutic efficacy against Ebola in mice", "setting": "Ebola", "value": "confirmed the therapeutic efficacy against Ebola"}, {"measurement": "Effect on entry of Ebola virus into host cells", "setting": "Ebola virus", "value": "inhibit entry of Ebola virus into host cells"}]}]}
